Source: PubChem BioAssay AID1159506 (NCATS, 2015).

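Genome-wide siRNA knockdown in TC32 Ewing sarcoma cells, comparing luciferase light from an NR0B1-promoter reporter with a CMV-promoter reporter 48 hours after transfection. Each siRNA was applied at 20 nM. A z-score of the log NR0B1-over-CMV signal, less the median of siRNAs with the same seed; more negative means a stronger specific loss of the NR0B1 reporter.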

The strongest results of the screen are mostly left out here. Sequences are the guide (antisense) strand, without overhang.

siRNA: UCUUAAAGAAGAUUCGUCC
target gene: IMMP1L
seed-corrected z-score: 0.01975

siRNA: AUUGUUGUAGGAUUGAAUG
target gene: CSTL1
seed-corrected z-score: -0.07343

siRNA: UAUAUGAUUGGGUUAAGCA
target gene: OR51M1
seed-corrected z-score: -0.5344

siRNA: UGCUUUUUAGUGUACAUGC
target gene: TCEAL6
seed-corrected z-score: 0.1839

siRNA: AUAAGAACACCCGGUAUUC
target gene: OR13A1
seed-corrected z-score: 0.04791

siRNA: AACAAGAUAAGCUAUUCCC
target gene: RFC4
seed-corrected z-score: 0.816

siRNA: AUUCGUAUGAAACACCUUC
target gene: SIPA1L1
seed-corrected z-score: 0.9124

siRNA: UAUGAGAUCACUCUGAGUG
target gene: LUZP4
seed-corrected z-score: -0.3041

siRNA: UGGUUGGAAGGAGACAGCG
target gene: ZNF37BP
seed-corrected z-score: 1.051

siRNA: UGAUGUUAACUGGUGUCCU
target gene: IRGM
seed-corrected z-score: 0.6615

siRNA: UAUACGUAUGGACAAGGGC
target gene: CCDC65
seed-corrected z-score: 0.6411

siRNA: UUAGUGCAUACAGCUGACC
target gene: FJX1
seed-corrected z-score: -0.02445

siRNA: UAAUGUAUGGUCAAACGGC
target gene: SNTB1
seed-corrected z-score: -0.3291

siRNA: AUCCUUGUCUUUUCCACUC
target gene: S100P
seed-corrected z-score: -0.649

siRNA: UAAGGGAUGAGUGGUUAUC
target gene: TRAPPC3
seed-corrected z-score: -0.2686

siRNA: UAGUAGUCCAGGUUGAAGG
target gene: GPN2
seed-corrected z-score: 0.05422

siRNA: UGUUGGUAUAGUCAGAUUC
target gene: LOX
seed-corrected z-score: -0.4401

siRNA: UAUGGUAUUAAGACAAGAG
target gene: ORAI2
seed-corrected z-score: -0.5392

siRNA: UAGCUUAAGCUGUAAAAGC
target gene: MIA3
seed-corrected z-score: 0.2904

siRNA: AAAGUACUCGUUGAAGCCC
target gene: PRDM16
seed-corrected z-score: 0.5327

siRNA: ACUGUAUACACCAGCAUGC
target gene: ZNF330
seed-corrected z-score: 0.8406

siRNA: AUUUGUCGAAGUUUAUGCC
target gene: DDX4
seed-corrected z-score: -1.197

siRNA: CGCUGCUCAAAUGCAUUCG
target gene: LOC728417
seed-corrected z-score: -0.01645

siRNA: AAAAGUCCGAGGAUUGAGU
target gene: NEUROD1
seed-corrected z-score: -0.454

siRNA: UUCUCCUCCCGAUCGAUCC
target gene: CSRNP1
seed-corrected z-score: 0.236

siRNA: UGCCCUAUGGGUUUGCACC
target gene: RUSC1
seed-corrected z-score: 0.1303

Once more, the final 3:

siRNA	target gene	seed-corrected z-score
AAAAGUCCGAGGAUUGAGU	NEUROD1	-0.454
UUCUCCUCCCGAUCGAUCC	CSRNP1	0.236
UGCCCUAUGGGUUUGCACC	RUSC1	0.1303